Laboratory results from publication PMC11789580.

Assays:
RPOTp-nLUC (Arabidopsis) = target: T1, RPOTp-nLUC (Arabidopsis) (UniProt O24600); test: split reporter; firefly luciferase complementation imaging (LCI): nLUC and cLUC fusions co-infiltrated into 4-week-old Nicotiana benthamiana leaves, 3 days, 1 mM D-luciferin, CCD camera
T1 sequence: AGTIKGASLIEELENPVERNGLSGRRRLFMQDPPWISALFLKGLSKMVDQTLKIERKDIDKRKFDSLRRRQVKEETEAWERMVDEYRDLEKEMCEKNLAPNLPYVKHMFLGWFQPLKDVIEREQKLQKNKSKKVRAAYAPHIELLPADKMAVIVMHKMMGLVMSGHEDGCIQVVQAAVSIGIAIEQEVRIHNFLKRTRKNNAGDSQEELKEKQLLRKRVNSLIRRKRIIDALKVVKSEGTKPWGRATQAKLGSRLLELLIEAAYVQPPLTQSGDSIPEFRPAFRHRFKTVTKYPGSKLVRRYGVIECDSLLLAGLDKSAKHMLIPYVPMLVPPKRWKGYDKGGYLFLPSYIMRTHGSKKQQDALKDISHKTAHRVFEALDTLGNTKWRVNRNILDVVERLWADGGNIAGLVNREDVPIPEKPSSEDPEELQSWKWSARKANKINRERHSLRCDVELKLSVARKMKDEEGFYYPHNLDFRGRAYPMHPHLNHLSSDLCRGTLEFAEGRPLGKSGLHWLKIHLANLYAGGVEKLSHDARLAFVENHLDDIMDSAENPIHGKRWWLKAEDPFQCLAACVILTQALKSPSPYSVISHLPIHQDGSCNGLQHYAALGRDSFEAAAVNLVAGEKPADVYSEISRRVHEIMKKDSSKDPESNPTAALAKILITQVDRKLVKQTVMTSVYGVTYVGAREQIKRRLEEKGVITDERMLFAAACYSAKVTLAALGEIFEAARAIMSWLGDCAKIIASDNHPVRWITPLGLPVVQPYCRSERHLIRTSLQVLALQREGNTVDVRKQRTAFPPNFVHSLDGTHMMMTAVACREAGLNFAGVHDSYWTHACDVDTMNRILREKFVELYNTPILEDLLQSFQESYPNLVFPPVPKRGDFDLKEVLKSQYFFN

RPOTp-FLAG (Arabidopsis) = target: T2, RPOTp-FLAG (Arabidopsis) (UniProt O24600); test: co-IP; RPOTp-FLAG and HA-tagged proteins co-infiltrated into Nicotiana benthamiana leaves; lysate on anti-FLAG M2 magnetic beads 2 h at 4 °C, eluted with 3xFLAG peptide; blots with anti-FLAG and anti-HA
T2 sequence: T1 sequence

Row | Substance | binding (RPOTp-nLUC (Arabidopsis)) | binding (RPOTp-FLAG (Arabidopsis))
1 | CRR4 (Arabidopsis) | no binding | 
2 | OTP82 (Arabidopsis) | no binding | 
3 | OZ1-HA (Arabidopsis) |  | no binding

Results are given in words; binding and its absence hold for the method and conditions named. Binding seen in cells or lysates may run through a third protein. Sequences can lack the tags named with a protein.
